Target: T1, PLK1 (Homo sapiens, UniProt P53350)
T1 construct: Full-length, active GST-PLK1 is purified from Sf9 insect cells; made in house; host or cells: Sf9 insect cells
Test: Biochemical Characterization Assay: HTRF kinase assay, GST-PLK1 phosphorylation of GST-p53
Settings: GST-PLK1, GST-p53 substrate, ATP
Procedure: Biochemical Characterization Assay
Full-length, active GST-PLK1 is purified from Sf9 insect cells, and full-length GST-p53 is purified from E. coli. Anti-phospho p53 antibody is from Cell Signaling Technology. Europium-conjugated anti-rabbit antibody is from PerkinElmer Life and Analytical Sciences. APC-conjugated anti-GST antibody is from Prozyme.
Six microliters of GST-PLK1 (3 ug/mL) in Kinase Assay Buffer are then added and the solution incubated at 37° C. for 35 minutes. Six microliters of solution containing 43 mM EDTA to stop the reaction and a 1:600 dilution of anti-phospho-p53 antibody in 20 mM HEPES pH 7, 50 mM NaCl, and 0.5 mg/mL BSA (Antibody Binding Buffer) are added and the solution incubated at 37° C. for 30 minutes. […] The HTRF signal is read on an Envision reader from PerkinElmer Life and Analytical Sciences.

The chains behind the UniProt entries cited, without tags or fusion partners.
UniProt P53350, whole entry: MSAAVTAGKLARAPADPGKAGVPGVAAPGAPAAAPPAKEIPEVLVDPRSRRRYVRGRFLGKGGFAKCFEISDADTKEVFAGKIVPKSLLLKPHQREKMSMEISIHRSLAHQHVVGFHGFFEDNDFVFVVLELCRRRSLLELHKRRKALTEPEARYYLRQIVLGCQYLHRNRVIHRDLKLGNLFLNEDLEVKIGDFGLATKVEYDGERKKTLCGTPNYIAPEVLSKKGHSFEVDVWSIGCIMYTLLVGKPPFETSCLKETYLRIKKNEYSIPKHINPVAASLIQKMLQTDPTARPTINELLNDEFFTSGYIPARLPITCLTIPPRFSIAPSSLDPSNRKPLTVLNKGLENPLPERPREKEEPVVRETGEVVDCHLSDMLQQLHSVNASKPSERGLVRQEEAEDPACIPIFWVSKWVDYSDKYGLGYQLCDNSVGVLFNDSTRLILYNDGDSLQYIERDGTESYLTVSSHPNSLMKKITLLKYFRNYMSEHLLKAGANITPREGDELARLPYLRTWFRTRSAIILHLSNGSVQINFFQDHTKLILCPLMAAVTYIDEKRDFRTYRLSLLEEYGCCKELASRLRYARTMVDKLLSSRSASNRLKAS

- IC50: 1 to 50 nM
Compound: COc1cc(C(=O)O)ccc1Nc1ncc2c(n1)N(C1CCCC1)CC(F)(F)C(=O)N2C [Example I-22, 4-(9-cyclopentyl-7,7-difluoro-5-methyl-6-oxo-6,7,8,9-tetrahydro-5H-pyrimido[4,5-b][1,4]diazepin-2-ylamino)-3-methoxy-benzoic acid]
